PubChem BioAssay AID504764, Drosophila RNAi Screening Center, 2011
Aim: 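Genome-wide screen for regulators of Notch-driven gene expression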 (primary screen). Cells: Drosophila Kc167 cells. Reagent: long dsRNA against Drosophila genes. Time to read-out: about 5 days (4 days dsRNA, then 24 h after transfection). Treatment: transfection of constitutively active membrane-tethered Notch lacking the extracellular domain, read 24 h later. Read-out: 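Firefly luciferase from an E(spl)m3 reporter with active Notch, plus control-promoter and uninduced reporter wells for normalisation; unnormalised counts, duplicate wells a and b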. Scale: induced reporter light, run 1, well a and induced reporter light, run 1, well b: higher = more light from the Notch target reporter with active Notch; control promoter light, run 1, well a and control promoter light, run 1, well b: higher = more light from the viral control promoter (cell number, transfection, viability); uninduced reporter light, run 1, well a: higher = more light from the Notch target reporter without active Notch. Hit rule: 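Wells with low control signal or poorly matching duplicates excluded; duplicates averaged; per source plate, z beyond ±2 for induced/control log2 ratio or beyond ±1.8 for induced/uninduced marks a hit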. Calls: active = modifier hit (raised or lowered Notch signal); inactive = not a hit.
In all, the deposit lists about 22,000 reagents; shown is an unselected part of those that have a named target and a result. Over the whole deposit, 403 (1.9%) got an active call. 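Unnormalised raw counts per well; ratio z-scores behind the hit calls and whether each hit raises or lowers signal are not deposited.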 A plus sign joins genes that one reagent is predicted to hit. The record does not give: the amount of reagent.

Target gene | dsRNA | induced reporter light, run 1, well a | induced reporter light, run 1, well b | control promoter light, run 1, well a | control promoter light, run 1, well b | uninduced reporter light, run 1, well a | Call
CG13962 (GeneID 35270) | DRSC02304 | 87235 | 54545 | 63195 | 79590 | 2885 | inactive
Top3beta (GeneID 31565) | DRSC18724 | 2.18e5 | 1.81e5 | 1.82e5 | 1.59e5 | 15095 | inactive
CG14937 (GeneID 34591) | DRSC02419 | 1.34e5 | 1.57e5 | 95745 | 1.28e5 | 19505 | inactive
Ssrp (GeneID 37767) | DRSC04658 | 1.50e5 | 1.50e5 | 1.06e5 | 1.26e5 | 17945 | active
Cnb (GeneID 38258) | DRSC08569 | 68110 | 70785 | 1.04e5 | 1.22e5 | 5195 | inactive
CG31637 (GeneID 33914) | DRSC02270 | 1.01e5 | 1.06e5 | 1.14e5 | 99575 | 8170 | inactive
CG31637 (GeneID 33914) | DRSC03263 | 1.26e5 | 1.31e5 | 1.51e5 | 1.77e5 | 7350 | inactive
Tim17a2 (GeneID 40632) | DRSC12252 | 87780 | 83670 | 1.21e5 | 96640 | 9115 | inactive
lbk (GeneID 36788) | DRSC07178 | 75015 | 86170 | 1.37e5 | 1.63e5 | 7240 | inactive
Hibch (GeneID 41869) | DRSC15705 | 1.55e5 | 1.44e5 | 97395 | 81110 | 9345 | inactive
CG2681 (GeneID 31258) | DRSC18464 | 2.11e5 | 1.90e5 | 2.15e5 | 2.05e5 | 12655 | inactive
RpL6 (GeneID 43723) | DRSC14323 | 77115 | 82275 | 1.02e5 | 1.05e5 | 5145 | inactive
RpL6 (GeneID 43723) | DRSC22384 | – | – | – | – | – | active
CG14017 (GeneID 33787) | DRSC02348 | 1.47e5 | 1.41e5 | 1.52e5 | 1.61e5 | 9105 | inactive
CG32246 (GeneID 317936) | DRSC08115 | 1.64e5 | 1.60e5 | 1.86e5 | 1.68e5 | 10400 | inactive
AnxB9 (GeneID 42492) | DRSC14111 | 1.64e5 | 1.71e5 | 2.22e5 | 2.24e5 | 14885 | inactive
dpy (GeneID 318824) | DRSC00233 | 1.27e5 | 1.18e5 | 1.40e5 | 1.64e5 | 8590 | inactive
dpy (GeneID 318824) | DRSC00234 | 1.46e5 | 1.25e5 | 1.54e5 | 1.64e5 | 8795 | inactive
dpy (GeneID 318824) | DRSC00472 | 1.57e5 | 1.80e5 | 2.17e5 | 1.90e5 | 10895 | inactive
pont (GeneID 53439) | DRSC17029 | 77785 | 89410 | 87915 | 69965 | 3605 | inactive
HisRS (GeneID 32841) | DRSC19986 | 67140 | 57725 | 79980 | 78570 | 9042 | inactive
CG14606 (GeneID 40866) | DRSC12550 | 96335 | 1.10e5 | 88900 | 74785 | 5435 | inactive
CAH1 + Adat1 | DRSC02009 | 2.42e5 | 2.50e5 | 2.07e5 | 2.20e5 | 19705 | inactive
CG9970 (GeneID 38351) | DRSC08644 | 1.14e5 | 1.16e5 | 2.01e5 | 1.98e5 | 8938 | inactive
snRNP-U1-C (GeneID 42274) | DRSC15804 | 1.33e5 | 1.26e5 | 1.34e5 | 1.39e5 | 9310 | inactive
CG11698 (GeneID 40986) | DRSC14355 | 2.27e5 | 2.23e5 | 2.74e5 | 3.35e5 | 11625 | inactive
CG9205 (GeneID 38113) | DRSC08642 | 1.27e5 | 1.42e5 | 1.92e5 | 2.87e5 | 12735 | inactive
CG42541 (GeneID 31344) | DRSC17973 | 1.44e5 | 1.33e5 | 2.65e5 | 2.44e5 | 10575 | inactive
CG42541 (GeneID 31344) | DRSC18119 | 7660 | 7140 | 12435 | 12350 | 2685 | inactive
CG42541 (GeneID 31344) | DRSC18120 | 1.74e5 | 1.55e5 | 3.39e5 | 2.60e5 | 12182 | inactive
cos (GeneID 35653) | DRSC07598 | 1.87e5 | 1.69e5 | 1.73e5 | 1.80e5 | 14710 | inactive
cag (GeneID 36157) | DRSC07587 | 1.65e5 | 1.97e5 | 1.99e5 | 2.08e5 | 17570 | inactive
Vsx1 (GeneID 31470) | DRSC18349 | 1.29e5 | 1.72e5 | 2.23e5 | 2.84e5 | 11795 | inactive
Vsx1 (GeneID 31470) | DRSC18350 | 37040 | 34665 | 51895 | 54905 | 7560 | inactive

2 entries from above, sorted by “control promoter light, run 1, well b”, lowest first:
Target gene | dsRNA | induced reporter light, run 1, well a | induced reporter light, run 1, well b | control promoter light, run 1, well a | control promoter light, run 1, well b | uninduced reporter light, run 1, well a | Call
CG42541 (GeneID 31344) | DRSC17973 | 1.44e5 | 1.33e5 | 2.65e5 | 2.44e5 | 10575 | inactive
CG9205 (GeneID 38113) | DRSC08642 | 1.27e5 | 1.42e5 | 1.92e5 | 2.87e5 | 12735 | inactive
